Library screening results

The chains behind the UniProt entries cited, without tags or fusion partners.
UniProt E9BF75, entry or part of it: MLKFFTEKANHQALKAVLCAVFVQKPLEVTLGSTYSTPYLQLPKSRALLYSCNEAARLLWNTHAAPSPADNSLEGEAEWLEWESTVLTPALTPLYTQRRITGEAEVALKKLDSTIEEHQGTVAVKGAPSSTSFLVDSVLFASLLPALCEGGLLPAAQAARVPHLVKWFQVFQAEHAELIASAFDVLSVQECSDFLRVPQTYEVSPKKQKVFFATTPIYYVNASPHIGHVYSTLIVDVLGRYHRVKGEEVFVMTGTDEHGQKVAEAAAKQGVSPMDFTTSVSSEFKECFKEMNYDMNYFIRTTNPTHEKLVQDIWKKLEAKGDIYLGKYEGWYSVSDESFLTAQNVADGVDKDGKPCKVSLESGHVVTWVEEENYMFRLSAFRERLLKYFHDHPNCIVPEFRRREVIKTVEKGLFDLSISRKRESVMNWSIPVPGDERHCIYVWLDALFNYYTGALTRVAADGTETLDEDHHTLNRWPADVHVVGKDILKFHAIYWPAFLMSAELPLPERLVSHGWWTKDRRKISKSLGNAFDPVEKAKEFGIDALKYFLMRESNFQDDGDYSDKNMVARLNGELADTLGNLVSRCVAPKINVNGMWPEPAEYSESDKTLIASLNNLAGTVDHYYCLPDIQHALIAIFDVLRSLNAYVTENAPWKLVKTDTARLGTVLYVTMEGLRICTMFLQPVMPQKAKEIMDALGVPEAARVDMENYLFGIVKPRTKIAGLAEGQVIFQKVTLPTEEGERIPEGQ

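Primary screen of methionyl-tRNA synthetase; the read-out is not stated. Target: Methionyl-tRNA synthetase (putative), Leishmania donovani (UniProt E9BF75). The test concentration is not given. The values are filed as inhibition. Size under these conditions: about 68,000 compounds, about 24 of them at 50% or above in at least one test.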

All values are in %. The controls that fix the scale are not given in the record; negative values are as filed. The compounds are a random part of those screened.

Cc1nn2c(nc1=O)-c1ccccc1NC2C(=O)O (centres undefined) read 9.946%. With Cc1ccc2cc(C(=O)N3CCCC3Cn3cccn3)[nH]c2c1 (centres undefined) the screen gave 7.229%. NS(=O)(=O)CC1CCCN(C(=O)CCCC2CCCC2)C1 (centres undefined) read 17.49%. Result for O=C1NCCCc2[nH]c(C3CCN(C(=O)C4CC4)CC3)nc21 was 8.696%. For Cc1c(Br)cnn1C(C)C(=O)Nc1nncs1 (centres undefined) the result was -5.036%. Result for CC(C)CC(CNC(=O)NCc1cc[nH]n1)N1CCOCC1 (centres undefined) was 0%.

For COc1ccc(CN(Cc2ccccn2)Cc2cncn2C)cc1 the result was 21.9%. CN(C)CC1(O)CCN(C(=O)c2cnc(-c3cccnc3)nc2)C1 (centres undefined) read 6.41%. CNC(=O)N1CCOCC1c1c(C)nn(C)c1C (centres undefined) gave 5.775%. With Cc1ccccc1CCC(=O)N1CCCC(c2cc(C(N)=O)[nH]n2)C1 (centres undefined) the screen gave 11.35%. With Cc1cc(CNC(=O)NCc2cccs2)ccc1S(C)(=O)=O the screen gave 10.37%. O=C(NCCc1ccccc1)NCCN1CCC(c2cccs2)CC1 gave 19.15%.

Cc1nnc(N2C[C@@H]3CCCO[C@@H]3[C@H](N(C)C)C2)s1 read 5.435%. CCc1noc(C)c1C(=O)N1CCCC1c1c(C)nn(C)c1OC (centres undefined) read 1.408%. With CC(C)=CCN1CCN(C(=O)c2cc(C(C)C)no2)[C@H]2CS(=O)(=O)C[C@H]21 the screen gave 17.31%. CNC(=O)CN1CCOC(c2ccccc2C(F)(F)F)C1 (centres undefined) read 10.34%. Result for Fc1ccc(CN2CCCC2Cn2cccn2)c2ncccc12 (centres undefined) was 20%. With CN(C)C(=O)[C@H]1C[C@@H]2CN(c3ncccn3)C[C@H]1O2 the screen gave 7.492%.

COC(=O)CCN1CCC(NC(=O)OC(C)(C)C)CC1 gave 7.99%. With N#Cc1cccc(S(=O)(=O)NC(=O)COc2ccc3c(c2)CCC3)c1 the screen gave 12.88%. With CC1=C(C#N)C(=O)N(C)C(=O)/C1=C\C1=Cc2ccccc2OC1 the screen gave 3.939%. Result for CC(=O)N1CCCC2(CCN(C(=O)c3nn(C)c4ccccc34)CC2)C1 was 3.333%. Cn1cc(C(=O)NC[C@H]2OC[C@@H]3CCN(C4CCOCC4)C[C@@H]32)cn1 gave 9.408%. For CCc1ccc(CN(C)Cc2nc(COc3ccccc3)no2)nc1 the result was 2.847%.

Result for CN(CC1CCCCO1)c1nc2c(cc1C(N)=O)CCC2 (centres undefined) was 16.01%. CCc1noc(C)c1C(=O)N1CCC2(CCCN(CC(C)(C)C)C2=O)C1 (centres undefined) read 5.079%. For CO[C@H]1CN(C)S(=O)(=O)[C@@]12CCN(Cc1ccccc1)C2 the result was 9.589%. With Cc1ccccc1-c1cncc(C2CCN(S(=O)(=O)N(C)C)CC2)n1 the screen gave 19.79%. With Cc1cc(C)nc(N2CCCC(Cn3cc(CN(C)C)nn3)C2)n1 (centres undefined) the screen gave -3.014%. Result for COCCC(=O)N1CCN(CC2CC2)c2ncccc2C1 was 4.396%.

Result for CN(C)CCn1ccnc1C1CCN(C(=O)CCC(F)(F)F)CC1 was 16.43%. Result for Cc1nc(CNC(=O)N2CCCC(c3ncc[nH]3)C2)sc1C (centres undefined) was 10.05%. With NC(=O)N1C[C@H](NC(=O)c2cscn2)[C@@H]2OCCC[C@@H]21 the screen gave 9.302%. With Cc1noc(C)c1CNC(=O)C(C)Oc1ccccc1F (centres undefined) the screen gave 11.68%. CN(Cc1ccsc1)C(=O)Nc1ccc(=O)n(C)c1 gave 14.54%. For CC(C)N1CCC2(CCCN(Cc3ccc(F)cc3)C2=O)C1 (centres undefined) the result was 17%.

Result for c1coc(CN2CCO[C@@]3(CCC[C@@H]3COCc3nccs3)C2)c1 was 14.93%. Cc1nc(C)n(CC2CCCN2CC(=O)NCCc2ccsc2)n1 (centres undefined) read 11.54%. For COc1cc(C(=O)N2CCCS2(=O)=O)cc(Cl)c1OC the result was 13.29%. Result for Cc1nc(COC[C@@]23CCC[C@@H]2CN(Cc2nccs2)C3)cs1 was 8.029%. With O=C(CC1CC1)NCc1cn2c(n1)CN(Cc1nccs1)CC2 the screen gave 16.19%. COCCNC(=O)C(C)S(=O)(=O)c1ccc(OC)cc1 (centres undefined) read 0%.

COCCCN(Cc1ccncc1)C(=O)CSc1ccc(F)cc1 read 17.13%. Cn1nccc1-c1cncc(C2CCCN(S(C)(=O)=O)C2)n1 (centres undefined) gave 15.7%.

Repeated from the top, 3 entries:

SMILES,inhibition
Cc1nn2c(nc1=O)-c1ccccc1NC2C(=O)O (centres undefined),9.946
Cc1ccc2cc(C(=O)N3CCCC3Cn3cccn3)[nH]c2c1 (centres undefined),7.229
NS(=O)(=O)CC1CCCN(C(=O)CCCC2CCCC2)C1 (centres undefined),17.49

Source: ChEMBL document CHEMBL3988442, “University of Dundee, Small-Polar-MMV Screening Library” (2021).